# Assay results: PubChem BioAssay AID1688 (National Center for Advancing Translational Sciences (NCATS), 2009)
# Screen size: about 220,000 compounds; about 2,400 (1.1%) were called active. The shares of active, inactive and inconclusive entries below differ from those in the screen. Calls come from the whole dose curve; as a rule, active = well fitted inhibition curve with a large enough effect; inconclusive = small, poorly fitted or top-dose-only effect, or effect the other way; inactive = no such curve, though single readings can be large or run the other way. Where the call is inconclusive, the potency comes from a doubtful curve fit.
# Test: qHTS Multiplex Assay to Identify Dual Action Probes in a Cell Model of Huntington: Aggregate Formation (GFP); note: nearly all actives have a fitted effect of over 60% in size
# Settings: PC12 HttQ103-GFP aggregates, Acumen cytometry, 40 h; activity change, negative = inhibition: at 46.1 µM (top of the series) unless noted
# Outline: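 Read-out: GFP aggregate count by laser scanning cytometer (488 nm excitation, 500-530 nm emission, 1–25 µm objects >6 SD above background). Cells: PC12, inducible HTTex1-Q103-GFP, 100 nM tebufenozide; compounds titrated.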
# % is set by controls: 0 for no effect and ±100 for the full control effect; potency is the fitted concentration of half-maximal effect.
SMILES,Potency,"activity change, negative = inhibition"
CCOc1ccc(C2C(C(=O)c3ccco3)=C(O)C(=O)N2Cc2cccnc2)cc1 (configuration not stated),inactive,–
Cc1ccc(-c2noc(CCC(=O)N3CCN(c4cccc(C(F)(F)F)c4)CC3)n2)cc1,"inconclusive: 35.5 µM [inhibitor, single point]",–
COc1ccc(N=C2SC(CC(=O)Nc3ccccc3)C(=O)N2Cc2ccco2)cc1 (configuration not stated),"inconclusive: 28.2 µM [inhibitor, single point]",–
O=c1sc(/C=N/Nc2ccccc2)c(Cl)n1Cc1ccccc1,"inconclusive: 5.62 µM [inhibitor, single point]",–
CCOc1ccc(C(C(=O)NC2CCCC2)N(Cc2ccccc2)C(=O)c2nsc(Cl)c2Cl)cc1 (configuration not stated),"inconclusive: 35.5 µM [inhibitor, single point]",–
COc1ccccc1C(=O)Nc1nc(-c2ccc(S(=O)(=O)N3CCOCC3)cc2)cs1,active: 2.51 µM,–
CCC(=O)Nc1nonc1-c1nc2ccccc2n1CC(C)C,"inconclusive: 35.5 µM [inhibitor, single point]",–
COc1ccc(-c2noc(CCC(N)=O)n2)cc1OC,inactive,–
Cc1ccc(OCc2nnc(SCC(=O)c3ccccc3)n2-c2ccccc2)cc1,"inconclusive: 35.5 µM [inhibitor, single point]",–
O=C(NCCc1ccccc1)c1c(F)c(F)c(F)c(F)c1F,inactive,–
CCSc1nc(-c2ccccc2)c(C#N)c(=O)[nH]1,inactive,–
N#C/C(=C\c1ccc([N+](=O)[O-])cc1)c1ccccn1,"inconclusive: 3.16 µM [activator, single point]",–
N#CC1=C(N)SC(N)=C(C#N)C1Cc1ccccc1,"inconclusive: 7.94 µM [inhibitor, partial curve]",–
CC(=N/O)/C(C)=N\NC(=O)c1ccccn1,inactive,–
CC(C)COC(=O)NCCOC(=O)Nc1cccc(Cl)c1,active: 10 µM,–
CCCOc1ccc(Cn2c(=O)oc3ccc(C)cc32)cc1OC,"inconclusive: 35.5 µM [inhibitor, single point]",–
Cc1cccc2cc(/C=N/NC(=O)c3ccccc3O)c(Cl)nc12,"inconclusive: 35.5 µM [inhibitor, single point]",–
CCC(C)[C@H](NC(=O)NCc1ccccc1Cl)C(=O)OC (some centres not stated),"inconclusive: 10 µM [inhibitor, partial curve]",–
CC(/C=C/c1ccccc1F)=N\NC(=O)c1cccc(F)c1,inactive,–
Cn1c2c(c(=O)n(C)c1=O)C(C(F)(F)F)(C(F)(F)F)N=C(c1ccccc1Cl)N2,"inconclusive: 35.5 µM [inhibitor, single point]",–
CC(C)OC(=O)c1cccc(NC(=O)c2ccccc2)c1,"inconclusive: 35.5 µM [inhibitor, single point]",–

SMILES,Potency,"activity change, negative = inhibition"
Cc1nn(-c2ccccc2)c(C)c1/C=N/NC(=O)c1cc(C23CC4CC(CC(C4)C2)C3)[nH]n1,"inconclusive: 35.5 µM [inhibitor, single point]",–
COC(=O)c1ccccc1NC(=O)c1c(O)c2c([nH]c1=O)CCCC2,"inconclusive: 0.562 µM [inhibitor, single point]",–
Cc1cc(C(=O)CNCc2ccco2)c(C)n1-c1ccc(F)cc1,"inconclusive: 35.5 µM [inhibitor, single point]",–
CCc1cc2c(nc1CC)CCN(CC/C(C)=N/OC[C@H]1O[C@H](c3ccccc3)C=C[C@@H]1Oc1ccc(OC)cc1)C2,"inconclusive: 20 µM [inhibitor, single point]",–
COC(=O)c1ccccc1NC(=O)C1COc2ccccc2O1 (configuration not stated),"inconclusive: 3.55 µM [inhibitor, single point]",–
COCCn1c(SCc2csc(-c3ccccc3)n2)nc2ccccc21,"inconclusive: 35.5 µM [inhibitor, single point]",–
CN(C)c1ccc(N=Nc2ccccc2C(=O)OCC(=O)N2CCCCCC2)cc1,"inconclusive: 35.5 µM [inhibitor, single point]",–
CC(=O)NS(=O)(=O)c1ccc(NC(=O)c2ccccn2)cc1,"inconclusive: 0.562 µM [activator, full curve, poor fit]",–
O=C(NN=C1C2CC3CC1CC(Cl)(C3)C2)c1cccs1,inactive,–
COc1cccc(OCCNc2cc(N3CCCCC3)ccc2[N+](=O)[O-])c1,"inconclusive: 8.91 µM [inhibitor, single point]",–
O=C(NCc1ccco1)C(=S)N1CCCC1,"inconclusive: 10 µM [activator, partial curve]",–
COc1cc2c(cc1OC)/C(=C/c1ccc(Br)cc1)C(=O)OC2,"inconclusive: 31.6 µM [activator, single point]",–
CC1(C)CC(=O)c2cc3c(nc2C1)CC(C)(C)CC3=O,"inconclusive: 3.55 µM [inhibitor, single point]",–
CCNc1nc(NCC)n2c(SC(C(=O)Nc3cc(Cl)cc(Cl)c3)c3ccccc3)nnc2n1 (configuration not stated),"inconclusive: 35.5 µM [inhibitor, single point]",–
O=C(c1ccc(COc2c(F)c(F)cc(F)c2F)o1)N1CCN(c2ccc(Cl)cc2)CC1,"inconclusive: 8.91 µM [inhibitor, partial curve]",–
Nc1nnc(CC(=O)N/N=C/c2cc([N+](=O)[O-])cc(Br)c2O)s1,–,inactive: 30.6% [at 9.22 µM]
Cc1cc(C)c2sc(N(CCCN(C)C)C(=O)c3ccc(Br)s3)nc2c1,"inconclusive: 1000 µM [inhibitor, partial curve, poor fit]",–
CCCCc1n[nH]c2c1/C(=N/O)CC(c1ccccc1)C2 (configuration not stated),"inconclusive: 12.6 µM [inhibitor, partial curve]",–
O=C(Nc1ccc(S(=O)(=O)N2CCOCC2)cc1)c1ccc(Cl)s1,"inconclusive: 35.5 µM [inhibitor, single point]",–
O=C(c1ccccc1)N1CCN(c2ccc(NCc3ccc4c(c3)OCO4)cc2)CC1,"inconclusive: 35.5 µM [inhibitor, single point]",–
Cc1ccccc1-c1nc(CN2CCC(C(=O)NCCC3=CCCCC3)CC2)c(C)o1,"inconclusive: 28.2 µM [inhibitor, single point]",–

# Full records, quoted from the list.
# `Cc1ccccc1-c1nc(CN2CCC(C(=O)NCCC3=CCCCC3)CC2)c(C)o1` in the list: Potency: inconclusive: 28.2 µM [inhibitor, single point]
# `CCNc1nc(NCC)n2c(SC(C(=O)Nc3cc(Cl)cc(Cl)c3)c3ccccc3)nnc2n1` (configuration not stated) in the list: Potency: inconclusive: 35.5 µM [inhibitor, single point]
# `CN(C)c1ccc(N=Nc2ccccc2C(=O)OCC(=O)N2CCCCCC2)cc1` in the list: Potency: inconclusive: 35.5 µM [inhibitor, single point]
